Values from PubChem BioAssay AID743121 (NCATS, 2013)
Shown is a random part of about 26,000 reagents. 167 of all reagents (0.63%) count as active. 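Calls are per gene from RSA p-values that are not deposited; an individual active-marked siRNA can sensitise only weakly.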 A number with no mark means an inactive call. The numbers tell different reagents against one gene apart. Not all columns of the deposit are shown. Reagent sequences are not shown.

Assay: 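Genes whose silencing strengthens cell killing by camptothecin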 (primary screen)
System: MDA-MB-231 cells, a human breast cancer line
Reagent: single siRNA against human genes, 20 nM siRNA (0.8 pmol per well)
Duration: 120 h (drug added 48 h after transfection, read 72 h later)
Treatment: camptothecin 20 nM (about EC30) for 72 h; vehicle 0.1% DMSO in parallel plates
Read-out: 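Cell viability by ATP luminescence (CellTiter-Glo) as % of non-targeting siRNA wells, and the log2 ratio of viability without drug over viability with camptothecin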
Direction: log2 vehicle/camptothecin viability: higher = stronger sensitisation to camptothecin
Active means: 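Active genes have an RSA gene-level p-value below 0.001, computed from the ratios of their separate siRNAs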

BCL2 #1
- log2 vehicle/camptothecin viability: -0.336

BCL2 #2
- log2 vehicle/camptothecin viability: -0.344

BCL2 #3
- log2 vehicle/camptothecin viability: -0.349

BCL2 #4
- log2 vehicle/camptothecin viability: -0.0457

HNRNPA2B1 #1
- log2 vehicle/camptothecin viability: 0.248

HNRNPA2B1 #2
- log2 vehicle/camptothecin viability: 0.166

HNRNPA2B1 #3
- log2 vehicle/camptothecin viability: 0.159

HNRNPA2B1 #4
- log2 vehicle/camptothecin viability: 0.0191

TLR10 #1
- log2 vehicle/camptothecin viability: 0.226

TLR10 #2
- log2 vehicle/camptothecin viability: -0.0969

TLR10 #3
- log2 vehicle/camptothecin viability: -0.182

TLR10 #4
- log2 vehicle/camptothecin viability: 0.0647

GRID2 #1
- log2 vehicle/camptothecin viability: -0.0175

GRID2 #2
- log2 vehicle/camptothecin viability: -0.0227

GRID2 #3
- log2 vehicle/camptothecin viability: -0.0938

GRID2 #4
- log2 vehicle/camptothecin viability: -0.257

Continued (4 carried over from the part before).
GRID2 #1
- log2 vehicle/camptothecin viability: -0.0175

GRID2 #2
- log2 vehicle/camptothecin viability: -0.0227

GRID2 #3
- log2 vehicle/camptothecin viability: -0.0938

GRID2 #4
- log2 vehicle/camptothecin viability: -0.257

CLDN4 #1
- log2 vehicle/camptothecin viability: -0.534

CLDN4 #2
- log2 vehicle/camptothecin viability: 0.349

CLDN4 #3
- log2 vehicle/camptothecin viability: -0.039

CLDN4 #4
- log2 vehicle/camptothecin viability: 0.507

GK5 #1
- log2 vehicle/camptothecin viability: -0.092

GK5 #2
- log2 vehicle/camptothecin viability: -0.365

GK5 #3
- log2 vehicle/camptothecin viability: -0.345

GK5 #4
- log2 vehicle/camptothecin viability: -0.351

CX3CL1 #1
- log2 vehicle/camptothecin viability: -0.369

CX3CL1 #2
- log2 vehicle/camptothecin viability: 0.0295

CX3CL1 #3
- log2 vehicle/camptothecin viability: 0.419

RBM5 #1
- log2 vehicle/camptothecin viability: -0.308

RBM5 #2
- log2 vehicle/camptothecin viability: -0.364

RBM5 #3
- log2 vehicle/camptothecin viability: -0.288

RBM5 #4
- log2 vehicle/camptothecin viability: 0.088

PGF #1
- log2 vehicle/camptothecin viability: -0.857

PGF #2
- log2 vehicle/camptothecin viability: -0.0196

PGF #3
- log2 vehicle/camptothecin viability: -0.169

PGF #4
- log2 vehicle/camptothecin viability: -0.437
